Test results taken from article PMC7819943, “Rice protein-binding microarrays: a tool to detect cis-acting elements near promoter regions in rice”.
The list shows a part of the results.

The chains behind the UniProt entries cited, without tags or fusion partners.
UniProt Q0JBA9, entry or part of it: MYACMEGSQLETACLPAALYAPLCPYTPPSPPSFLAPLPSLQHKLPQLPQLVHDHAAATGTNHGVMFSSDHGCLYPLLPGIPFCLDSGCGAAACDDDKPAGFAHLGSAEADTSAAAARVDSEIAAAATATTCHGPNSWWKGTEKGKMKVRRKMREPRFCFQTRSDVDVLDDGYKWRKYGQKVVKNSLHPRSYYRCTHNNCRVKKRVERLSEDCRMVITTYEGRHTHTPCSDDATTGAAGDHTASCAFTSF

Biological target: OsWRKY34 (Oryza sativa, UniProt Q0JBA9 1-250)
Assay: protein-binding microarray (RPBM); PBS, 2% BSA, 51.3 ng/ul salmon testes DNA, 50 uM zinc acetate, 200 nM TF, 25 C, 1 h; high values mean tight binding
Conditions: protein: recombinant; tags: N-terminal polyhistidine and DsRed monomer fusion (pET32a); label: CyDye5-dUTP incorporated in the synthesized complementary strand; 3' TTTTT single-stranded linker to array surface; dsDNA, one strand shown
How it was run: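 The binding signal for each feature is its fluorescence intensity in arbitrary units. An Axon 4000B scanner was used to read a custom Agilent array that had been made double-stranded with Cy5-dUTP primer extension, blocked with 2% BSA, incubated at 25 °C for 1 h with 200 nM protein in PBS, 2% BSA, salmon testes DNA and 50 µM zinc acetate, and washed. The protein was an N-terminal polyhistidine–DsRed transcription factor fusion from E. coli BL21-CodonPlus, purified on Ni–NTA.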

Sequence	binding signal
GCATTCTTTTTTGGACAACTTTATGATCATGTCATTTTAGCGGAGTCACCTAGTGCAG	10700 fluorescence intensity (a.u.)
TCGATCTCGTCTTCTTCCTTTCCACGGCACACGGCAGCGCCGGAGTCACCTAGTGCAG	9910 fluorescence intensity (a.u.)
ATGCTAAAAAGTCAACGGCGTCAATCATTTCGAAACGGAGCGGAGTCACCTAGTGCAG	12400 fluorescence intensity (a.u.)
CAGCTGCTCGTTTATCTCGTTAGTACAACATATTATCATTCGGAGTCACCTAGTGCAG	9940 fluorescence intensity (a.u.)
CATGATGAACTAGTAATTACTCCCGCGTGTTGTGCTGTGCCGGAGTCACCTAGTGCAG	9870 fluorescence intensity (a.u.)
CATCGAGCTTGATTACCGGTTACTGCATGCTCGCTCGCTCCGGAGTCACCTAGTGCAG	8240 fluorescence intensity (a.u.)
TCTGCTTGATCACTAGGCCCTGAAAAGCTTTGTTGCATCACGGAGTCACCTAGTGCAG	10400 fluorescence intensity (a.u.)
CACCGTTGACTTTTTAGCACATATTTGACCGTTTGTCTTTCGGAGTCACCTAGTGCAG	39100 fluorescence intensity (a.u.)
TTAATTTTCTTGTATCGATCACTTAATTAACTTGGTTCTTCGGAGTCACCTAGTGCAG	8560 fluorescence intensity (a.u.)
AAGTCTTCTTGCGCGCACCGCGGTTGCCCTCCCGGGCGCGCGGAGTCACCTAGTGCAG	8060 fluorescence intensity (a.u.)
TTTTTATCAGTTCGTACCATCGAGAACTTTACATCTCAAACGGAGTCACCTAGTGCAG	9020 fluorescence intensity (a.u.)
TCACCGACACTGCCAAACTAGAAATTGCTTTTCCATCTAACGGAGTCACCTAGTGCAG	8220 fluorescence intensity (a.u.)
ACTACCCCAAACTTACAACTTTCCATCACATCATATGATACGGAGTCACCTAGTGCAG	8710 fluorescence intensity (a.u.)
CAACCTACTCTTATCACTAACCACAGTCTTCTCCTAGCTTCGGAGTCACCTAGTGCAG	8840 fluorescence intensity (a.u.)
CATCTCGTGCTAAGGGCCTATTCGGCTGCCGGAGTTGCAGCGGAGTCACCTAGTGCAG	9100 fluorescence intensity (a.u.)
TCACATCTCATTTTATGTTGGTTTTTTATGGGACGGGAGGCGGAGTCACCTAGTGCAG	10200 fluorescence intensity (a.u.)
CAGTATTCATCAGTAACCACTATACATTTTTCTTTACTAACGGAGTCACCTAGTGCAG	8980 fluorescence intensity (a.u.)
ATTTTGCCCCTTGTTGATCACCACAGAAGAACATGTGCTACGGAGTCACCTAGTGCAG	9790 fluorescence intensity (a.u.)
TCGCCGTTTAATTTCCTCACCTATCTCCATTTCTCGTCCACGGAGTCACCTAGTGCAG	8900 fluorescence intensity (a.u.)
TCACCAACCATCTCATCTCTCTCACCATTTCATTTTATTTCGGAGTCACCTAGTGCAG	9480 fluorescence intensity (a.u.)
TCCGCGGCGCAATCGTTTATATATATGTCTTGATCGATCCCGGAGTCACCTAGTGCAG	8300 fluorescence intensity (a.u.)

Sequence	binding signal
TTTTTTTGCCGGCAGAGTTTTGGCTCCGAATTACATGCCCCGGAGTCACCTAGTGCAG	8030 fluorescence intensity (a.u.)
CTTCACCTCACCTATCGGCGATCGCGCCCGAACCTACGCACGGAGTCACCTAGTGCAG	8600 fluorescence intensity (a.u.)
TGGCATTTTTTTTTTTGGAATTGAGCACTTGTTAATGTCACGGAGTCACCTAGTGCAG	8110 fluorescence intensity (a.u.)
GGGGATTTCTCATTTGGGTACTGTTTAGGTTCCAACTTTTCGGAGTCACCTAGTGCAG	8370 fluorescence intensity (a.u.)
ATATCGGCTTTGCTCGCTGTTTCTTTCCTTTGTATTCTCGCGGAGTCACCTAGTGCAG	12700 fluorescence intensity (a.u.)
ATAAATTCTTCTAATTATTTGGTTGCCCTATTTTGTTTTTCGGAGTCACCTAGTGCAG	8600 fluorescence intensity (a.u.)
TTGGTTGCATGGCCACAATTTTATCCATATATCCATTCCACGGAGTCACCTAGTGCAG	8480 fluorescence intensity (a.u.)
ACTATCGAGGAGACATTTACTTGTTGTTTGCGTCTCACTTCGGAGTCACCTAGTGCAG	8500 fluorescence intensity (a.u.)
GCGGCGCGCGGTTGGGGAGGGGCGGGGACGCGTGAGAGCGCGGAGTCACCTAGTGCAG	11600 fluorescence intensity (a.u.)
TATATATATGTGTGTTTTACGCCCTCTGTTTTATTTAAAACGGAGTCACCTAGTGCAG	13100 fluorescence intensity (a.u.)
AATACTTTCTGTATCTACCGCCATTACGTGATCACAGATTCGGAGTCACCTAGTGCAG	8110 fluorescence intensity (a.u.)
CCACGAAGCGAGTTGAAATTTGGTTTGGTCTCCATCACAACGGAGTCACCTAGTGCAG	8590 fluorescence intensity (a.u.)
TGCAGATACAGCCATATACCTTTGCTCAATGCCTATCCTACGGAGTCACCTAGTGCAG	8660 fluorescence intensity (a.u.)
TCCGTCGTTCCGTGTTGGCCCACGCTGCCGCCGCGCGCCGCGGAGTCACCTAGTGCAG	9390 fluorescence intensity (a.u.)
GTTTTATATTACAAATCGCTTTAACATTCTTTTTTAAAAACGGAGTCACCTAGTGCAG	9950 fluorescence intensity (a.u.)
AATGTGGGAGAAGGGGAGGAGAGAGGGGAGGGGAGGGGACCGGAGTCACCTAGTGCAG	16500 fluorescence intensity (a.u.)
AGCATCTTCGCTTGTGGTGCCGCACTGCCACCTACCCATCCGGAGTCACCTAGTGCAG	8110 fluorescence intensity (a.u.)
TCTACTGTGTGTGTGTGTGTGTGTGTTCACTACTGGATAGCGGAGTCACCTAGTGCAG	10000 fluorescence intensity (a.u.)
ATACCTCGTACATTTCTCAATCTCCTCACCTCCTTAGTCCCGGAGTCACCTAGTGCAG	9960 fluorescence intensity (a.u.)
GATTTGTTTCCTACATGTTGCTTTGATTCATAGAAAAGAACGGAGTCACCTAGTGCAG	9460 fluorescence intensity (a.u.)
TGTATGATGCTGTTGACTTTTTATCCAACGTTTGACCATCCGGAGTCACCTAGTGCAG	21200 fluorescence intensity (a.u.)

Rewritten with bars between the fields: part of the list above
Sequence | binding signal
GCATTCTTTTTTGGACAACTTTATGATCATGTCATTTTAGCGGAGTCACCTAGTGCAG | 10700 fluorescence intensity (a.u.)
TCGATCTCGTCTTCTTCCTTTCCACGGCACACGGCAGCGCCGGAGTCACCTAGTGCAG | 9910 fluorescence intensity (a.u.)
ATGCTAAAAAGTCAACGGCGTCAATCATTTCGAAACGGAGCGGAGTCACCTAGTGCAG | 12400 fluorescence intensity (a.u.)
CAGCTGCTCGTTTATCTCGTTAGTACAACATATTATCATTCGGAGTCACCTAGTGCAG | 9940 fluorescence intensity (a.u.)
